This passage reports cell viability results from the supplement of paper PMC9433722.

Counter-ions that a name gives are not always drawn. The list shows a part of the results. Single values are uncertain, as repeats are few or missing.

One assay has as its system Saos-2. The experiment in a line: cell viability (CCK-8) relative to DMSO control (% of control); higher = less cytotoxic. Particulars: 10 µM; 48 h.
The next assay has as its system U2OS. The assay is described as above. Particulars: 10 µM; 48 h.

In the case of `CC(C)OC(=O)CCC/C=C\C[C@@H]1[C@@H](/C=C/[C@@H](O)COc2cccc(C(F)(F)F)c2)[C@H](O)C[C@@H]1O` [Travoprost], the cell viability in the assay with Saos-2 stood at 104; with U2OS it was 84.7.

Regarding `COCCc1ccc(OCC(O)CNC(C)C)cc1` (stereo not drawn) [Metoprolol Tartrate], the cell viability with Saos-2 worked out at 76.6; with U2OS it was 102.

In the case of `C#C[C@]1(O)CC[C@H]2[C@@H]3CCC4=CC(=O)CC[C@@H]4[C@H]3C(=C)C[C@@]21CC` [Etonogestrel], the cell viability stood at 105 with Saos-2 and 92.3 in the assay with U2OS.

`NC[C@H]1O[C@H](O[C@H]2[C@H](O)[C@@H](O[C@H]3O[C@H](CO)[C@@H](O)[C@H](N)[C@H]3O)[C@H](N)C[C@@H]2N)[C@H](N)C[C@@H]1O` [Tobramycin]: the cell viability with Saos-2 worked out at 68.2; with U2OS, 108.

`Cc1nnc(C(=O)NC(C)(C)c2nc(C(=O)NCc3ccc(F)cc3)c(O)c(=O)n2C)o1` [Raltegravir potassium]: the cell viability with Saos-2 is 107; in the assay on U2OS, 97.2.

Regarding `CCCCC[C@H](O)/C=C/[C@H]1[C@H](O)CC(=O)[C@@H]1C/C=C\CCCC(=O)O` [Prostaglandin E2], the cell viability worked out at 55.3 in the assay with Saos-2 and 115 in the assay with U2OS.

Take `COc1c(N2CCNC(C)C2)c(F)cc2c(=O)c(C(=O)O)cn(C3CC3)c12` (stereo not drawn) [Gatifloxacin]: the cell viability in the assay on Saos-2 is 68.2; in the assay on U2OS, 93.4.

Turning to `C[C@@H]1C[C@H]2[C@@H]3CCC4=CC(=O)C=C[C@]4(C)[C@@]3(F)[C@@H](O)C[C@]2(C)[C@H]1C(=O)CO` [Desoximetasone], the cell viability was 112 with Saos-2 and 95.3 in the assay with U2OS.

`CC(=O)N1CCN(c2ccc(OCC3COC(Cn4ccnc4)(c4ccc(Cl)cc4Cl)O3)cc2)CC1` (stereo not drawn) [Ketoconazole]: the cell viability with Saos-2 came out at 71.3; with U2OS it was 122.

Regarding `CCOC(=O)[C@H](CCc1ccccc1)N[C@@H](C)C(=O)N1Cc2cc(OC)c(OC)cc2C[C@H]1C(=O)O` [Moexipril·HCl], the cell viability with Saos-2 turned out to be 110; in the assay with U2OS, 102.

For `O=C(NCC1CCCCN1)c1cc(OCC(F)(F)F)ccc1OCC(F)(F)F` (stereo not drawn) [Flecainide Acetate], the values for the cell viability with Saos-2 and in the assay with U2OS were 62.1 and 105, respectively.

As for `COc1cc(NC(C)CCCN)c2ncccc2c1` (stereo not drawn) [Primaquine diphosphate], the cell viability was 54.4 in the assay with Saos-2 and 89.2 with U2OS.

As to `O=C(O[C@@H]1C[C@@H]2C[C@H]3C[C@H](C1)N2CC3=O)c1c[nH]c2ccccc12` [Dolasetron], the figures for the cell viability in the assay on Saos-2 and with U2OS were 60.6 and 111, respectively.

For the molecule `NCCS` [Cysteamine·HCl], the cell viability stood at 105 in the assay on Saos-2 and 98.8 with U2OS.

Take `CCCOc1ccc(C(=O)OCCN(CC)CC)cc1N` [Proparacaine·HCl]: the cell viability came to 99.2 with Saos-2 and 79.5 in the assay with U2OS.

`Cc1[nH]cnc1CN1CCc2c(c3ccccc3n2C)C1=O` [Alosetron·HCl]: the cell viability in the assay on Saos-2 was found to be 101; with U2OS, 83.8.

On to `COc1ccc(CC2c3cc(OC)c(OC)cc3CC[N+]2(C)CCC(=O)OCCCCCOC(=O)CC[N+]2(C)CCc3cc(OC)c(OC)cc3C2Cc2ccc(OC)c(OC)c2)cc1OC` (stereo not drawn) [Atracurium Besylate], for which the figures for the cell viability in the assay on Saos-2 and in the assay with U2OS were 62.8 and 104, respectively.

Turning to `Cc1nnc(C(C)C)n1C1C[C@H]2CC[C@@H](C1)N2CC[C@H](NC(=O)C1CCC(F)(F)CC1)c1ccccc1` (stereo in doubt) [Maraviroc], the cell viability in the assay with Saos-2 turned out to be 105; in the assay with U2OS it was 91.8.

Regarding `Clc1ccc(CO/N=C(\Cn2ccnc2)c2ccc(Cl)cc2Cl)c(Cl)c1` [Oxiconazole Nitrate], the cell viability was found to be 67.5 in the assay with Saos-2 and 116 with U2OS.

In the case of `COc1cc(C(=O)NS(=O)(=O)c2ccccc2C)ccc1Cc1cn(C)c2ccc(NC(=O)OC3CCCC3)cc12` [Zafirlukast], the cell viability with Saos-2 stood at 67.3; with U2OS it was 103.

Consider `O=C(CCCN1CCC(O)(c2ccc(Cl)cc2)CC1)c1ccc(F)cc1` [Haloperidol], for which the figures for the cell viability in the assay on Saos-2 and with U2OS were 58.8 and 112, respectively.

As to `C=CC[N+]1([C@H]2C[C@H]3[C@@H]4CC[C@H]5C[C@H](O)[C@@H](N6CCOCC6)C[C@]5(C)[C@H]4CC[C@]3(C)[C@H]2OC(C)=O)CCCC1` [Rocuronium Bromide], the cell viability in the assay with Saos-2 came out at 62.5; with U2OS, 121.

With `CN(C)CCCN1c2ccccc2CCc2ccccc21` [Imipramine·HCl], the figures for the cell viability in the assay with Saos-2 and in the assay on U2OS were 60.7 and 113, respectively.

For the molecule `CO[C@H]1O[C@@H]2O[C@@]3(C)CC[C@H]4[C@H](C)CC[C@@H]([C@H]1C)[C@@]24OO3` [Artemether], the cell viability in the assay with Saos-2 stood at 132; with U2OS, 117.

For `CC(=O)S[C@@H]1CC2=CC(=O)CC[C@]2(C)[C@H]2CC[C@@]3(C)[C@@H](CC[C@@]34CCC(=O)O4)[C@H]12` [Spironolactone], the cell viability was found to be 65.9 in the assay with Saos-2 and 114 in the assay on U2OS.

As to `O=C(c1ccc(OCCN2CCCCC2)cc1)c1c(-c2ccc(O)cc2)sc2cc(O)ccc12` [Raloxifene·HCl], the cell viability in the assay with Saos-2 came out at 55.4; in the assay with U2OS it was 105.

On to `OC(CCN1CCCCC1)(c1ccccc1)C1CCCCC1` (stereo not drawn) [Trihexyphenidyl·HCl], for which the results for the cell viability in the assay on Saos-2 and with U2OS were 80.1 and 86, respectively.

`Oc1ncnc2[nH]ncc12` [Allopurinol]: the cell viability was 58.7 in the assay on Saos-2 and 105 in the assay on U2OS.

`C[C@@H]1O[C@@H]1P(=O)(O)O` [Fosfomycin Calcium]: the figures for the cell viability with Saos-2 and with U2OS were 111 and 102, respectively.

For the molecule `CN[C@@H]1[C@H](O[C@H]2[C@H](O[C@H]3[C@H](O)[C@@H](O)[C@H](N=C(N)N)[C@@H](O)[C@@H]3N=C(N)N)O[C@@H](C)[C@]2(O)C=O)O[C@@H](CO)[C@H](O)[C@H]1O` [Streptomycin . sulfate], the cell viability in the assay on Saos-2 was determined as 68.6; in the assay on U2OS, 112.

On to `CC[C@]1(O)C[C@H]2CN(CCc3c([nH]c4ccccc34)[C@@](C(=O)OC)(c3cc4c(cc3OC)N(C=O)[C@H]3[C@@](O)(C(=O)OC)[C@H](OC(C)=O)[C@]5(CC)C=CCN6CC[C@]43[C@@H]65)C2)C1` [Vincristine Sulfate], for which the figures for the cell viability in the assay on Saos-2 and with U2OS were 30.7 and 67.6, respectively.

`COc1ccc(C[C@@H]2c3cc(OC)c(OC)cc3CC[N@+]2(C)CCC(=O)OCCCCCOC(=O)CC[N@@+]2(C)CCc3cc(OC)c(OC)cc3[C@H]2Cc2ccc(OC)c(OC)c2)cc1OC` [Cisatracurium Besylate]: the values for the cell viability in the assay on Saos-2 and in the assay with U2OS were 96.2 and 92.8, respectively.

Regarding `Nc1ccn([C@@H]2CS[C@H](CO)O2)c(=O)n1` [Lamivudine], the figures for the cell viability in the assay with Saos-2 and in the assay with U2OS were 115 and 85.6, respectively.

On to `Cc1ccccc1N1C(=O)c2cc(S(N)(=O)=O)c(Cl)cc2NC1C` (stereo not drawn) [Metolazone], for which the cell viability in the assay on Saos-2 turned out to be 94.4; with U2OS, 100.

On to `C[C@@H]1NC(=O)[C@@H](N)CNC(=O)[C@H](C2CCNC(=N)N2)NC(=O)/C(=C/NC(N)=O)NC(=O)[C@H](CNC(=O)CC(N)CCCN)NC1=O.N=C1NCC[C@H]([C@@H]2NC(=O)/C(=C/NC(N)=O)NC(=O)[C@H](CNC(=O)C[C@@H](N)CCCN)NC(=O)[C@H](CO)NC(=O)[C@@H](N)CNC2=O)N1` [Capreomycin Sulfate], for which the cell viability is 116 in the assay on Saos-2 and 106 in the assay with U2OS.

With `CNC[C@H](O)c1cccc(O)c1` [Phenylephrine], the figures for the cell viability in the assay on Saos-2 and in the assay on U2OS were 88.9 and 103, respectively.

For the molecule `CC(C)(C#N)c1cc(Cn2cncn2)cc(C(C)(C)C#N)c1` [Anastrozole], the cell viability in the assay on Saos-2 was found to be 71.5; in the assay with U2OS, 95.2.

As for `C[C@@H](O)[C@H]1C(=O)N2C(C(=O)O)=C(S[C@@H]3CN[C@H](CNS(N)(=O)=O)C3)[C@H](C)[C@H]12` [Doripenem], the cell viability with Saos-2 is 116; in the assay with U2OS, 107.

Take `NCC[C@H](O)C(=O)N[C@@H]1C[C@H](N)[C@@H](O[C@H]2O[C@H](CN)[C@@H](O)[C@H](O)[C@H]2O)[C@H](O)[C@H]1O[C@H]1O[C@H](CO)[C@@H](O)[C@H](N)[C@H]1O` [Amikacin . disulfate]: the cell viability was determined as 107 in the assay with Saos-2 and 98.9 in the assay on U2OS.

For the molecule `CNC(=C[N+](=O)[O-])NCCSCc1ccc(CN(C)C)o1` [Ranitidine·HCl], the cell viability in the assay with Saos-2 is 67.4; in the assay with U2OS, 104.

As to `C[C@@H]1[C@H](O)[C@@H](C)/C=C/C=C/C=C/C=C/C=C/C=C/C=C/[C@H](O[C@@H]2O[C@H](C)[C@@H](O)[C@H](N)[C@@H]2O)C[C@@H]2O[C@](O)(C[C@@H](O)C[C@@H](O)[C@H](O)CC[C@@H](O)C[C@@H](O)CC(=O)O[C@H]1C)C[C@H](O)[C@H]2C(=O)O` [Amphotericin B], the cell viability with Saos-2 amounted to 120; in the assay on U2OS, 99.

As for `CNC(=O)c1cnn(-c2nc(N)c3ncn([C@@H]4O[C@H](CO)[C@@H](O)[C@H]4O)c3n2)c1` [Regadenoson], the figures for the cell viability with Saos-2 and in the assay with U2OS were 106 and 105, respectively.

In the case of `CC[C@@]1(O)C(=O)OCc2c1cc1n(c2=O)Cc2cc3c(CN(C)C)c(O)ccc3nc2-1` [Topotecan . hydrochloride], the figures for the cell viability in the assay with Saos-2 and in the assay with U2OS were 31.7 and 47.4, respectively.

In the case of `CC1=C(/C=C/C(C)=C\C=C\C(C)=C\C(=O)O)C(C)(C)CCC1` [9-cis-Retinoic acid], the cell viability with Saos-2 is 101; in the assay on U2OS, 103.

`OC(CNCC(O)C1CCc2cc(F)ccc2O1)C1CCc2cc(F)ccc2O1` (stereo not drawn) [Nebivolol·HCl]: the values for the cell viability in the assay with Saos-2 and in the assay with U2OS were 85.6 and 62.5, respectively.

In the case of `O=C(O)CCc1nc(-c2ccccc2)c(-c2ccccc2)o1` [Oxaprozin], the cell viability in the assay with Saos-2 amounted to 110; in the assay with U2OS, 108.

On to `Clc1ccc(C(Cn2ccnc2)OCc2csc3c(Cl)cccc23)c(Cl)c1` (stereo not drawn) [Sertaconazole . Nitrate], for which the cell viability in the assay on Saos-2 was determined as 60.2; with U2OS it was 116.

For the molecule `Cc1ccnc2c1NC(=O)c1cccnc1N2C1CC1` [Nevirapine], the cell viability in the assay on Saos-2 is 112; in the assay with U2OS, 113.

For `CC(C)Nc1cccnc1N1CCN(C(=O)c2cc3cc(NS(C)(=O)=O)ccc3[nH]2)CC1` [Delavirdine Mesylate], the values for the cell viability in the assay on Saos-2 and in the assay on U2OS were 61.8 and 105, respectively.

On to `CCC[C@@H]1C[C@@H](C(=O)N[C@@H]([C@H]2O[C@H](SC)[C@H](O)[C@@H](O)[C@H]2O)[C@@H](C)O)N(C)C1` [Lincomycin], for which the figures for the cell viability with Saos-2 and in the assay with U2OS were 65.4 and 92.1, respectively.

Regarding `CC(CCc1ccccc1)NCC(O)c1ccc(O)c(C(N)=O)c1` (stereo not drawn) [Labetalol . hydrochloride], the figures for the cell viability with Saos-2 and with U2OS were 110 and 99.9, respectively.

Take `CC[C@H]1OC(=O)[C@H](C)[C@@H](O[C@H]2C[C@@](C)(OC)[C@@H](O)[C@H](C)O2)[C@H](C)[C@@H](O[C@@H]2O[C@H](C)C[C@H](N(C)C)[C@H]2O)[C@](C)(OC)C[C@@H](C)C(=O)[C@H](C)[C@@H](O)[C@]1(C)O` [Clarithromycin]: the cell viability was 67.5 with Saos-2 and 87.2 in the assay with U2OS.

Consider `Brc1c(NC2=NCCN2)ccc2nccnc12` [Brimonidine], for which the cell viability came to 113 in the assay with Saos-2 and 115 in the assay on U2OS.

As to `CC(=O)OCC(=O)[C@@]1(O)CC[C@H]2[C@@H]3CCC4=CC(=O)CC[C@]4(C)[C@H]3[C@@H](O)C[C@@]21C` [Hydrocortisone Acetate], the cell viability with Saos-2 was found to be 70.4; with U2OS, 99.4.
